Source: article PMC10289747
No constants are given. Whether binding was seen depends on the method and setting. For some assays here: In cells and extracts the contact can be indirect. Some results given as binding are weak or reduced against the parent protein; the word gives no strength.

Protein sequences, listed by entry. Tags and fused reporters are not part of them.
UniProt P28574: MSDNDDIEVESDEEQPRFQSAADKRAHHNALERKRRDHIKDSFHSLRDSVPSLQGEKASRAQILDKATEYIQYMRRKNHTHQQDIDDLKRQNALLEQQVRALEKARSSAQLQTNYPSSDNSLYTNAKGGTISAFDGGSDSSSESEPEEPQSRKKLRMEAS
UniProt P61244: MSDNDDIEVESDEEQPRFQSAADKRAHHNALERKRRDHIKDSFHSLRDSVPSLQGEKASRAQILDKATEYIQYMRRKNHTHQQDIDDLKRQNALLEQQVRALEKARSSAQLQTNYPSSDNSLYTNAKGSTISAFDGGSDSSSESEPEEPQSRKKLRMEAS
UniProt P63158: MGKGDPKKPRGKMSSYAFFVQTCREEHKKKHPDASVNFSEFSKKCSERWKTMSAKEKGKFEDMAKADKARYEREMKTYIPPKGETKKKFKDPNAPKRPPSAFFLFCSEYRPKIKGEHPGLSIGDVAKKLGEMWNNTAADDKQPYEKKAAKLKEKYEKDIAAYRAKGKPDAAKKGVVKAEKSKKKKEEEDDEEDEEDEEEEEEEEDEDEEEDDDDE
UniProt P35222: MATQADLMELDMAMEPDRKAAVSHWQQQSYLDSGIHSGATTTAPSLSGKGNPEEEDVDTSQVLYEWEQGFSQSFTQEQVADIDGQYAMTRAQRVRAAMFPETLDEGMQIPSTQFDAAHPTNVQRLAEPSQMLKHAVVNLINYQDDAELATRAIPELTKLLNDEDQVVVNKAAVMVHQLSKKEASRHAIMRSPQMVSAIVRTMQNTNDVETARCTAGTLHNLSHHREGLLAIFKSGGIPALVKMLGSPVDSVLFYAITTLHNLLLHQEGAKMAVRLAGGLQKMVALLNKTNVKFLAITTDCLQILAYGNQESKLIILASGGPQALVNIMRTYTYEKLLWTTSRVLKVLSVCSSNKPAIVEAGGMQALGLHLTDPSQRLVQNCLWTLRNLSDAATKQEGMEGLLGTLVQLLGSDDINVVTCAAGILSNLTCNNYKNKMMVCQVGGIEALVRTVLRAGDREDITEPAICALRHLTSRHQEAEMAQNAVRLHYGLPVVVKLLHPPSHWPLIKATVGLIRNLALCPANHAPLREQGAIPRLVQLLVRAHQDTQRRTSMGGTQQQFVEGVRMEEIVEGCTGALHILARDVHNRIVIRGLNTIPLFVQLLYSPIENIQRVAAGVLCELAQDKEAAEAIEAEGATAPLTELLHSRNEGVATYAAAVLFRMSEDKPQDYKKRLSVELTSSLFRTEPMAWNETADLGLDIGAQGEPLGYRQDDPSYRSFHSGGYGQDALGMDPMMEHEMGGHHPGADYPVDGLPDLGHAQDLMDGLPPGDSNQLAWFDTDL
UniProt Q02248: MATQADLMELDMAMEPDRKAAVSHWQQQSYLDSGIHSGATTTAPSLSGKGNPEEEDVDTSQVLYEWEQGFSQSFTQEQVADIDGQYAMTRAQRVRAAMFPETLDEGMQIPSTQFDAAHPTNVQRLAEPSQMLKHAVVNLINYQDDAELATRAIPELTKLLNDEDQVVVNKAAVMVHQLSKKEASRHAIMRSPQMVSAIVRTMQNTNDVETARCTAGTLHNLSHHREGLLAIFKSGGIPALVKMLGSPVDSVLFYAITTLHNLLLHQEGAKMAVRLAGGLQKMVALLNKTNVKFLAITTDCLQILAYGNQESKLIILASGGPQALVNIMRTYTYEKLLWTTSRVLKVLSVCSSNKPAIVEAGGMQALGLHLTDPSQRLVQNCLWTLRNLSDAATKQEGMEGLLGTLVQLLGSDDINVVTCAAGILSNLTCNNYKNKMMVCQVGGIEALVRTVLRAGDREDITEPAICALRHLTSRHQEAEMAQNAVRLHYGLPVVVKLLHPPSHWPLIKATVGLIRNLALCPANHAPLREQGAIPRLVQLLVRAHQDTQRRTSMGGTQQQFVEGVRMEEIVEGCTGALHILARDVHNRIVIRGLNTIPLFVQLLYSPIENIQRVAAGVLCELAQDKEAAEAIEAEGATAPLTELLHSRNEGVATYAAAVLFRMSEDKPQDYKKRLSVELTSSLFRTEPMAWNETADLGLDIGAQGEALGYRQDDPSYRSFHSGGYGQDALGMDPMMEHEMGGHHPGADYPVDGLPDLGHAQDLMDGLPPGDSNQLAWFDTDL

Legend:
[1] = target: MAX (MYC-associated factor X), mouse, endogenous (mouse (endogenous in mouse liver)) (UniProt P28574); test: co-IP; anti-MAX antibody, then western blotting; cytoplasm and nucleus from CCA and normal mouse liver
[2] = target: MAX (MYC-associated factor X), mouse, endogenous (mouse (endogenous in mouse liver)) (UniProt P28574); test: co-IP; cholangiocytes isolated from CCA and control mouse liver, then western blotting
recombinant MAX = recombinant MAX (UniProt P61244); test: pull-down; recombinant MAX and β-catenin with specific antibodies immobilized to A/G beads, in vitro; both purified
[3] = target: MAX (MYC-associated factor X), human, endogenous (human (endogenous in human liver, H69, MzChA-1)) (UniProt P61244); test: native gel or EMSA; labeled probes with 2 E-box elements of the HMGB1 promoter; nuclear proteins from H69, normal human liver, MzChA-1 and human CCA liver; antibodies added, IgG and probe only as controls
[4] = target: MAX (MYC-associated factor X), human, endogenous (human (endogenous in human liver, H69, MzChA-1)) (UniProt P61244); test: native gel or EMSA; probe with double TCFs/LEF1 element of the IL-6 promoter; nuclear proteins from H69, normal human liver, MzChA-1 and human CCA liver; antibodies added, IgG and probe only as controls
[5] = target: MAX (MYC-associated factor X), human, endogenous (human (endogenous in human liver, H69, MzChA-1)) (UniProt P61244); test: co-IP; human CCA and normal human liver lysates, then western blotting

| binding [1] | binding [2] | Substance | also measured |
| --- | --- | --- | --- |
| binds | binds | High-mobility group box-1 (HMGB1), mouse, endogenous (from UniProt P63158 1-215) | – |
| – | – | recombinant β-catenin (from UniProt P35222 1-781) | binding (recombinant MAX): binds |
| – | – | β-catenin (catenin beta-1), human, endogenous (from UniProt P35222 1-781) | binding [3]: binds; binding [4]: binds; binding [5]: binds |
| binds | binds | β-catenin (catenin beta-1), mouse, endogenous (from UniProt Q02248 1-781) | – |
